According to the supplement of paper PMC10849652:
Some of the results follow.

By UniProt entry, the sequences of proteins in these tests, tags left out. Where a name states a change or a piece, a line headed by the entry shows the natural chain unless it says otherwise.
UniProt O15127: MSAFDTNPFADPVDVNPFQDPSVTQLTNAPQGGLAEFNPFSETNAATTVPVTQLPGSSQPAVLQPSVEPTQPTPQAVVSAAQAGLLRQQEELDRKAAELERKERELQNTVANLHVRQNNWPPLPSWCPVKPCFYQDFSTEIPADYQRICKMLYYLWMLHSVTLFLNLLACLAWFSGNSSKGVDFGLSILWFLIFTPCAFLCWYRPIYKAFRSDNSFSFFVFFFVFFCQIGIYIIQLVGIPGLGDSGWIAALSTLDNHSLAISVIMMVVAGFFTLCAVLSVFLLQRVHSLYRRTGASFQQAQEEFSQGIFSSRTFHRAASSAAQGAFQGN
UniProt O95248: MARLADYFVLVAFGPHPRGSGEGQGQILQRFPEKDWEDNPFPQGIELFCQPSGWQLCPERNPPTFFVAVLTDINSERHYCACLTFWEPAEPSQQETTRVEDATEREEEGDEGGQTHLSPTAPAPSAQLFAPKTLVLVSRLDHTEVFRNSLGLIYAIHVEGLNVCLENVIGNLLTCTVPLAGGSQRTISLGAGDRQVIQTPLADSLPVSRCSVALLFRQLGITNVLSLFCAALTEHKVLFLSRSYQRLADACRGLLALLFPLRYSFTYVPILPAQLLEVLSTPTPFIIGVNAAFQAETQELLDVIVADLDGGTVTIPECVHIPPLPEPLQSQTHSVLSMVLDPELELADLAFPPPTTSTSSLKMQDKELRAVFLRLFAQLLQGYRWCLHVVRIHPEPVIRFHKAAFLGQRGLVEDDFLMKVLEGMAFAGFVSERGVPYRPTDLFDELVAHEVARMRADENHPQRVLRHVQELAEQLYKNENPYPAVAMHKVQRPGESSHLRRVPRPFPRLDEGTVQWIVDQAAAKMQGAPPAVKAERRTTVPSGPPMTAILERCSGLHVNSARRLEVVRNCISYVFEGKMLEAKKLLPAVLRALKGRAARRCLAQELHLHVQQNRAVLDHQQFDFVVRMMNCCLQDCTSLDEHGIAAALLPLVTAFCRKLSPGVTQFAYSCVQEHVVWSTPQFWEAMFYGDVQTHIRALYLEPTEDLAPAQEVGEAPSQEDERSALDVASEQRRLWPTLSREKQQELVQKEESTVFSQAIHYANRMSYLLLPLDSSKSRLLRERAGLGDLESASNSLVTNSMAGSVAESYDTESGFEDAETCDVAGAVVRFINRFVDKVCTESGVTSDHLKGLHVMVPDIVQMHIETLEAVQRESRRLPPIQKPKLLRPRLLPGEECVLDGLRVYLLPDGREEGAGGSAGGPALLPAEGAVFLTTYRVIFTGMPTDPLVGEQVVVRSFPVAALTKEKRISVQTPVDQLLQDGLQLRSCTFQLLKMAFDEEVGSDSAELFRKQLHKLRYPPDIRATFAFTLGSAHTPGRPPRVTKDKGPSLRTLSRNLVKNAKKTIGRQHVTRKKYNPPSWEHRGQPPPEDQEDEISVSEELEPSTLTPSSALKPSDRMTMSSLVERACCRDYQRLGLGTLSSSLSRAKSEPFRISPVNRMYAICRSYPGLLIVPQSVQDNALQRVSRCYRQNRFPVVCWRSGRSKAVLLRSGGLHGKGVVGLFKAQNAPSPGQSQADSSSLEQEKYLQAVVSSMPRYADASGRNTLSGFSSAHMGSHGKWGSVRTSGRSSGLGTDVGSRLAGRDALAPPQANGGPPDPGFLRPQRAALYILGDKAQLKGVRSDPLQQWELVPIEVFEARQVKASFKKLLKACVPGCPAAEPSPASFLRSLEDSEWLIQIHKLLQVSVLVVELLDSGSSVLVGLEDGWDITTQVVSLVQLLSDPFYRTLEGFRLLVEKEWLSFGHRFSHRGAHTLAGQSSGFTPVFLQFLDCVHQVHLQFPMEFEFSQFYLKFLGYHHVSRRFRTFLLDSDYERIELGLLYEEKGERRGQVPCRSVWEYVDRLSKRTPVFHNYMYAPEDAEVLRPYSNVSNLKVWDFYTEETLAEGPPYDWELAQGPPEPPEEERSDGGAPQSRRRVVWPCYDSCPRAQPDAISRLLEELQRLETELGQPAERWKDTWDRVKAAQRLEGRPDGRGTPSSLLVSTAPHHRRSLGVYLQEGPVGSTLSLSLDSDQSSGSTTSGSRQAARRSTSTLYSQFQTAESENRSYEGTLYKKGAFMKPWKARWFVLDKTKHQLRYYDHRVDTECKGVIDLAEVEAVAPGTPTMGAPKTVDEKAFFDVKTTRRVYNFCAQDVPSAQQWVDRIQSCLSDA
UniProt Q96LD8: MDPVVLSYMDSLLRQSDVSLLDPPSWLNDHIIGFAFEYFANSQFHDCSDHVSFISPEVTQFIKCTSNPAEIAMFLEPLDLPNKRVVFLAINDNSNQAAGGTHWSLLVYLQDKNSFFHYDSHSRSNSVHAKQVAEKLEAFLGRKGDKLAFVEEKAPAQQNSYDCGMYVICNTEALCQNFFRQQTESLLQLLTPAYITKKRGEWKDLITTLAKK
UniProt Q99643: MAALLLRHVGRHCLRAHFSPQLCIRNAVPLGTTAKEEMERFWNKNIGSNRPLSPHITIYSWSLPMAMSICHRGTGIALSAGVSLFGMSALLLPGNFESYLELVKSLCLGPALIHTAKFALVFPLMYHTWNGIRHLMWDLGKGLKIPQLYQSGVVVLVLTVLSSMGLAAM
UniProt P67812: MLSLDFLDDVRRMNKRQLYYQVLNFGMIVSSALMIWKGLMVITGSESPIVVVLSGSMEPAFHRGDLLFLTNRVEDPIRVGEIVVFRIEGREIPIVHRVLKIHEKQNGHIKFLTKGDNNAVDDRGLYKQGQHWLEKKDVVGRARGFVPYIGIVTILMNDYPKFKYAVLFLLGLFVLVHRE
UniProt Q9BRK5: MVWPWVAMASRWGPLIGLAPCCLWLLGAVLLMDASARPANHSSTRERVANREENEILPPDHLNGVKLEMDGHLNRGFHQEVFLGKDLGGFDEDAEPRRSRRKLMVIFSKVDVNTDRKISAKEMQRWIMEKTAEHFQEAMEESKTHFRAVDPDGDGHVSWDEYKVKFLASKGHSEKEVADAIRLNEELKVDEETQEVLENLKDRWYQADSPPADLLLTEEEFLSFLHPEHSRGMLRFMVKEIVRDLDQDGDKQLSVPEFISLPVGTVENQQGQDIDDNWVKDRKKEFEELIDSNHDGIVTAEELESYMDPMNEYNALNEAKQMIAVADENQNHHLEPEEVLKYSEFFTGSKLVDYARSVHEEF
UniProt Q9NTJ5: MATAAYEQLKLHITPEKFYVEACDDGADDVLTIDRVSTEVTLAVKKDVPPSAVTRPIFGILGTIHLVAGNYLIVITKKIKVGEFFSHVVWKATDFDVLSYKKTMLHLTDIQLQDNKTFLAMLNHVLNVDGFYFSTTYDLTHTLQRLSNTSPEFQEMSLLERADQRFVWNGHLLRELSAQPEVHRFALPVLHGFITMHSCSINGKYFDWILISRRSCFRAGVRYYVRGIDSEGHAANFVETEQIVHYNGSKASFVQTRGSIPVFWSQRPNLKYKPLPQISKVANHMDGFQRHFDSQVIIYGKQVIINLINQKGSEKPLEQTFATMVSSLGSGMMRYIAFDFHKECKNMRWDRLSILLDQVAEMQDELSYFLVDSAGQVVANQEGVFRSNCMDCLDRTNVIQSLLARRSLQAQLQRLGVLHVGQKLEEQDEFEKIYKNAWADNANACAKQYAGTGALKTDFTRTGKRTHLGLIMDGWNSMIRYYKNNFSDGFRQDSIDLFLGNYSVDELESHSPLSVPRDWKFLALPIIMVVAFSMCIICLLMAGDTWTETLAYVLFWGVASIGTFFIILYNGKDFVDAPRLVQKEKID
UniProt Q9Y6U3: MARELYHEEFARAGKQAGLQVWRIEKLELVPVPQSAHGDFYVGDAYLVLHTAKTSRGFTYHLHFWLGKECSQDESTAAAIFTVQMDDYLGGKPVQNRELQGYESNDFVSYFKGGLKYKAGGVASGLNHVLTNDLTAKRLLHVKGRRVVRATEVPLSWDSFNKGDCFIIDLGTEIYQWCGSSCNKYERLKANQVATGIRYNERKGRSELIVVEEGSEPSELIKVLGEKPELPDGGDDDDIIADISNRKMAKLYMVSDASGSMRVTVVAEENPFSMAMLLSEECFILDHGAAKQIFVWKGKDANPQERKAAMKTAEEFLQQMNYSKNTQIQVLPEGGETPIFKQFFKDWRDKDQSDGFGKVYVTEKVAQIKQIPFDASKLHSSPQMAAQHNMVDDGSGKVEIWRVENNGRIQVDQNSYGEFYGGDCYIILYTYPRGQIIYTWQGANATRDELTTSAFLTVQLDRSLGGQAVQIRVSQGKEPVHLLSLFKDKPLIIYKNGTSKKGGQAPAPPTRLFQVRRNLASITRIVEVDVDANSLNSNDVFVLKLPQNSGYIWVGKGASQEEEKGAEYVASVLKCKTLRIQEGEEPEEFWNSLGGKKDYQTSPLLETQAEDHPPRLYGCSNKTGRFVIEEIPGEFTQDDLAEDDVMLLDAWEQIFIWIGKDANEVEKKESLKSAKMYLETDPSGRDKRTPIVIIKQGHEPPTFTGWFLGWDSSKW
UniProt Q9GZR1: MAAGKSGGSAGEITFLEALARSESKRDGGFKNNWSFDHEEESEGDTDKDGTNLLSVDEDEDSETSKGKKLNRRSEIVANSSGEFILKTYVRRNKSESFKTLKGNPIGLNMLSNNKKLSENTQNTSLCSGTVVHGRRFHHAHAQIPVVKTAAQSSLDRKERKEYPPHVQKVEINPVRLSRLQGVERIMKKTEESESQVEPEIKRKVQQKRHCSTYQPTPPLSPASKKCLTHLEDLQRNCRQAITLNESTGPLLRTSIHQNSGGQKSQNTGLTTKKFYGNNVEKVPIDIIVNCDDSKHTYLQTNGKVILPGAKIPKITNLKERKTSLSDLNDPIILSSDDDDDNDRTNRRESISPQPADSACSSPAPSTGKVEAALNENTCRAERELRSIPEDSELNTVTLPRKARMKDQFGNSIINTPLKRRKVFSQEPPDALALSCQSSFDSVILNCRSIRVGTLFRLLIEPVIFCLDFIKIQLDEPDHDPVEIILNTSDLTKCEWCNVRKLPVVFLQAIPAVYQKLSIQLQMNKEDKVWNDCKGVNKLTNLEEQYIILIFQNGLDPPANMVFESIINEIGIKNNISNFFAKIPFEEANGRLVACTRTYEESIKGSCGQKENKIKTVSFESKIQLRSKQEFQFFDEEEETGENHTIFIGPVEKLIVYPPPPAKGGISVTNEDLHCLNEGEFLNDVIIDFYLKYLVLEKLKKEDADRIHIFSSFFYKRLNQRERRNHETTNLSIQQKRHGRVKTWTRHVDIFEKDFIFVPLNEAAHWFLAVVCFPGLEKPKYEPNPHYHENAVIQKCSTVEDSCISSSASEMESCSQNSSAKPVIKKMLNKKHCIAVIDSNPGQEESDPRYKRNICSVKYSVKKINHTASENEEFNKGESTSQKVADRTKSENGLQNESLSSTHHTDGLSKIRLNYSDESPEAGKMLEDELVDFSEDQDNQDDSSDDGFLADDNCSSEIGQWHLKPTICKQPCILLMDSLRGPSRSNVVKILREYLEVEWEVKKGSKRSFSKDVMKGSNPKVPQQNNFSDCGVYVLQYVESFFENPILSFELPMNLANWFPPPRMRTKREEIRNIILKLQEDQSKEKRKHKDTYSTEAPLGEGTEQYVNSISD
UniProt O75880: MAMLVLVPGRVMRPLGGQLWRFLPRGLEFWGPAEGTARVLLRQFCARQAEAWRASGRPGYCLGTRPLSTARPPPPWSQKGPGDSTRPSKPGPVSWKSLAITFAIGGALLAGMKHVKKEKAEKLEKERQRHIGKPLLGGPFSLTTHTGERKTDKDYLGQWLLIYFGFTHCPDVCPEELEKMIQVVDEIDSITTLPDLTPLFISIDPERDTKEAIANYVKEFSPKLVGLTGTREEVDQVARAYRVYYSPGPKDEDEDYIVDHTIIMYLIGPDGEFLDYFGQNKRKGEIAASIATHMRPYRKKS
UniProt Q9UBE0: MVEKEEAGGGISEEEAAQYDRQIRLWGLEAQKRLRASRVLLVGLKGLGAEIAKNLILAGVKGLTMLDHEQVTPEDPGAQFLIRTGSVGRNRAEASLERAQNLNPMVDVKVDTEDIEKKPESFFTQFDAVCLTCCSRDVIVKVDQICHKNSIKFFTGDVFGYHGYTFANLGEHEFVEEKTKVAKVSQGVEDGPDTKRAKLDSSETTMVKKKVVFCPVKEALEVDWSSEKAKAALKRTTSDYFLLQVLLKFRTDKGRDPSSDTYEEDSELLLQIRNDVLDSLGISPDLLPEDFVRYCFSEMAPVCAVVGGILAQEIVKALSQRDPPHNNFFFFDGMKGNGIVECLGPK
UniProt O14521: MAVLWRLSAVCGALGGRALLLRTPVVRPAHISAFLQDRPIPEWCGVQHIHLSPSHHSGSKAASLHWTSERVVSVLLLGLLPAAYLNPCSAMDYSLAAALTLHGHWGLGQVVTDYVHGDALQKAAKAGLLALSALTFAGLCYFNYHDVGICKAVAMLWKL

What was measured:
Test in all cases: log2 fold change, soluble protein after heating vs DMSO (PISA); higher = thermal stabilisation; K562 lysate, 10 uM; active = over 0.2 and 3.5 SD of the protein, either way, in both replicates (recomputed)
nilotinib = compound: Cc1cn(-c2cc(NC(=O)c3ccc(C)c(Nc4nccc(-c5cccnc5)n4)c3)cc(C(F)(F)F)c2)cn1 [nilotinib]
Outline: (§1)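 Pellets of K562 cells were dounce-homogenised in PBS pH 7.4 with 1 mM MgCl2, and the crude extract was held at 1 mg/mL protein for a 30 min treatment with 10 μM compound. Aliquots were heated for 3 min over 48°C-58°C and pooled before NP-40 was added to 0.5% at 4°C. The supernatant from 21,000xg for 90 min was quantified by TMTpro 16plex LC-MS/MS with channel sums equalised. Values are reported from duplicates as log-two fold change in thermal stability relative to solvent controls.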

[1] = compound: Cc1nc(Nc2n[nH]c3c2CN(C(=O)N[C@H](CN(C)C)c2ccccc2)C3(C)C)c2sccc2n1
Outline: as §1

dasatinib = compound: Cc1nc(Nc2ncc(C(=O)Nc3c(C)cccc3Cl)s2)cc(N2CCN(CCO)CC2)n1 [dasatinib]
Outline: as §1

[2] = compound: Cc1ncc(-c2ccnc(Nc3ccc(S(C)(=O)=O)cc3)n2)n1C(C)C
Outline: as §1

[3] = compound: Cn1cc(-c2ccc3c(c2)CCN3C(=O)Cc2cccc(C(F)(F)F)c2)c2c(N)ncnc21
Outline: as §1

quisinostat = compound: Cn1cc(CNCC2CCN(c3ncc(C(=O)NO)cn3)CC2)c2ccccc21 [quisinostat]
Outline: as §1

tipifarnib = compound: Cn1cncc1[C@@](N)(c1ccc(Cl)cc1)c1ccc2c(c1)c(-c1cccc(Cl)c1)cc(=O)n2C [tipifarnib]
Outline: as §1

[4] = compound: NC(=O)Nc1cc(-c2cccc(F)c2)sc1C(=O)N[C@H]1CCCNC1
Outline: as §1

[5] = compound: NC(=O)c1cnc(N[C@@H]2CCCC[C@@H]2N)nc1Nc1cccc(-n2nccn2)c1
Outline: as §1

[6] = compound: NC1(c2ccc(-c3nc4ccn5c(=O)[nH]nc5c4cc3-c3ccccc3)cc2)CCC1
Outline: as §1

[7] = compound: NCC(=O)Nc1ccc(-n2nc(C(F)(F)F)cc2-c2ccc3c(ccc4ccccc43)c2)cc1
Outline: as §1

vorinostat = compound: O=C(CCCCCCC(=O)Nc1ccccc1)NO [vorinostat]
Outline: as §1

silmitasertib = compound: O=C(O)c1ccc2c(c1)nc(Nc1cccc(Cl)c1)c1ccncc12 [silmitasertib]
Outline: as §1

[8] = compound: O=C1NC(=O)C(c2cnc3ccccn23)=C1c1cn2c3c(cc(F)cc13)CN(C(=O)N1CCCCC1)CC2
Outline: as §1

entospletinib = compound: c1cn2cc(-c3ccc4cn[nH]c4c3)nc(Nc3ccc(N4CCOCC4)cc3)c2n1 [entospletinib]
Outline: as §1

Row | Target | log2 fold change (nilotinib) | log2 fold change [1] | log2 fold change (dasatinib) | log2 fold change [2] | log2 fold change [3] | log2 fold change (quisinostat) | log2 fold change (tipifarnib) | log2 fold change [4] | log2 fold change [5] | log2 fold change [6] | log2 fold change [7] | log2 fold change (vorinostat) | log2 fold change (silmitasertib) | log2 fold change [8] | log2 fold change (entospletinib)
1 | SCAMP2 (UniProt O15127) | inactive: -0.015 | inactive: 0.025 | inactive: 0.018 | inactive: -0.051 | inactive: -0.024 | inactive: -0.061 | inactive: 0.05 | inactive: -0.053 | inactive: 0.055 | inactive: -0.004 | inactive: -0.055 | inactive: 0.081 | inactive: 0.024 | inactive: 0.032 | inactive: 0.206
2 | SBF1 isoform 4 (UniProt O95248) | inactive: -0.018 | inactive: -0.041 | inactive: 0.092 | inactive: -0.046 | inactive: 0.047 | inactive: -0.103 | inactive: 0.162 | inactive: 0.12 | inactive: 0.039 | inactive: 0.091 | inactive: 0.013 | active: -0.377 | inactive: -0.046 | inactive: 0.056 | inactive: 0.005
3 | SENP8 (UniProt Q96LD8) | inactive: -0.102 | inactive: 0.365 | inactive: -0.216 | inactive: -0.084 | inactive: -0.124 | inactive: -0.024 | inactive: -0.375 | inactive: -0.007 | inactive: -0.008 | inactive: -0.005 | inactive: 0.141 | inactive: -0.006 | inactive: 0.049 | inactive: 0.019 | inactive: -0.118
4 | SDHC (UniProt Q99643) | inactive: -0.009 | inactive: 0.056 | inactive: -0.001 | inactive: -0.006 | inactive: -0.015 | inactive: 0 | inactive: -0.068 | inactive: -0.057 | inactive: -0.016 | inactive: 0.028 | inactive: -0.046 | inactive: -0.196 | inactive: 0.048 | inactive: -0.071 | inactive: 0.088
5 | SEPTIN11 isoform 2 (UniProt Q9NVA2) | inactive: 0.007 | inactive: 0.022 | inactive: -0.004 | inactive: -0.017 | inactive: 0.007 | inactive: 0.001 | inactive: 0.025 | inactive: 0 | inactive: -0.034 | inactive: -0.001 | inactive: 0.011 | inactive: 0.124 | inactive: -0.01 | inactive: 0.014 | inactive: 0.015
6 | SEC11A (UniProt P67812) | inactive: -0.021 | inactive: 0.004 | inactive: -0.052 | inactive: -0.002 | inactive: -0.047 | inactive: -0.063 | inactive: -0.072 | inactive: 0.042 | inactive: 0.011 | inactive: -0.063 | inactive: -0.041 | inactive: 0.143 | inactive: 0.005 | inactive: -0.06 | inactive: 0.001
7 | SAFB isoform 3 (UniProt Q15424) | inactive: -0.005 | inactive: 0.036 | inactive: 0.026 | inactive: -0.045 | inactive: 0.003 | inactive: -0.003 | inactive: 0.09 | inactive: 0.021 | inactive: -0.022 | inactive: 0.013 | inactive: 0.036 | inactive: 0 | inactive: 0.006 | inactive: -0.006 | inactive: 0
8 | SDF4 (UniProt Q9BRK5) | inactive: 0.008 | inactive: 0.018 | inactive: 0.004 | inactive: 0.043 | inactive: 0.027 | inactive: 0.032 | inactive: -0.023 | inactive: 0.008 | inactive: 0.011 | inactive: 0.01 | inactive: 0.006 | inactive: 0.122 | inactive: 0.004 | inactive: 0.013 | inactive: 0.001
9 | SACM1L (UniProt Q9NTJ5) | inactive: -0.006 | inactive: 0 | inactive: -0.065 | inactive: 0.006 | inactive: 0.045 | inactive: -0.011 | inactive: -0.073 | inactive: 0.013 | inactive: 0.024 | inactive: 0.003 | inactive: -0.094 | inactive: -0.053 | inactive: 0.046 | inactive: 0 | inactive: 0.007
10 | SEC23A (UniProt Q15436) | inactive: -0.025 | inactive: -0.042 | inactive: -0.016 | inactive: 0.086 | inactive: 0.036 | inactive: 0.005 | inactive: -0.062 | inactive: 0.002 | inactive: 0.002 | inactive: -0.017 | inactive: -0.017 | inactive: -0.048 | inactive: 0.021 | inactive: -0.002 | inactive: 0.001
11 | SCIN (UniProt Q9Y6U3) | inactive: 0.042 | inactive: -0.002 | inactive: -0.015 | inactive: 0.029 | inactive: 0.021 | inactive: 0.015 | inactive: 0.032 | inactive: -0.011 | inactive: -0.017 | inactive: 0.009 | inactive: 0.02 | inactive: 0.117 | inactive: 0.001 | inactive: -0.007 | inactive: -0.002
12 | SDAD1 (UniProt Q9NVU7) | inactive: 0.011 | inactive: 0.01 | inactive: -0.026 | inactive: 0.024 | inactive: 0.01 | inactive: 0.005 | inactive: 0.018 | inactive: 0.004 | inactive: 0.013 | inactive: -0.034 | inactive: -0.035 | inactive: 0.092 | inactive: 0.021 | inactive: 0.006 | inactive: 0.021
13 | SAFB2 (UniProt Q14151) | inactive: -0.057 | inactive: 0.004 | inactive: 0.043 | inactive: -0.033 | inactive: 0.049 | inactive: -0.032 | inactive: -0.025 | inactive: 0.01 | inactive: -0.009 | inactive: 0.037 | inactive: 0.016 | inactive: -0.184 | inactive: -0.013 | inactive: -0.021 | inactive: -0.015
14 | SENP6 (UniProt Q9GZR1) | inactive: 0.055 | inactive: 0.018 | inactive: 0.031 | inactive: -0.002 | inactive: 0.046 | inactive: -0.067 | inactive: -0.01 | inactive: -0.013 | inactive: -0.006 | inactive: 0.055 | inactive: 0.039 | inactive: -0.148 | inactive: 0.078 | inactive: -0.011 | inactive: -0.079
15 | SCO1 (UniProt O75880) | inactive: 0.046 | inactive: 0.029 | inactive: 0.001 | inactive: -0.095 | inactive: 0 | inactive: -0.13 | inactive: -0.108 | inactive: -0.033 | inactive: 0.029 | inactive: 0.001 | inactive: 0.022 | inactive: 0.149 | inactive: -0.067 | inactive: -0.052 | inactive: 0
16 | SAE1 (UniProt Q9UBE0) | inactive: 0.012 | inactive: 0.022 | inactive: 0.002 | inactive: 0.022 | inactive: 0.013 | inactive: 0.029 | inactive: -0.009 | inactive: -0.009 | inactive: 0.002 | inactive: -0.013 | inactive: 0.004 | inactive: 0.054 | inactive: -0.006 | inactive: 0.02 | inactive: 0.007
17 | SDHD (UniProt O14521) | inactive: 0.022 | inactive: 0.036 | inactive: 0.005 | inactive: 0.344 | inactive: 0.109 | inactive: -0.081 | inactive: -0.064 | inactive: 0.049 | inactive: -0.025 | inactive: 0.035 | inactive: -0.118 | inactive: -0.159 | inactive: 0.033 | inactive: 0.101 | inactive: 0.094

Quoted from above (two entries):
Row | Target | log2 fold change (nilotinib) | log2 fold change [1] | log2 fold change (dasatinib) | log2 fold change [2] | log2 fold change [3] | log2 fold change (quisinostat) | log2 fold change (tipifarnib) | log2 fold change [4] | log2 fold change [5] | log2 fold change [6] | log2 fold change [7] | log2 fold change (vorinostat) | log2 fold change (silmitasertib) | log2 fold change [8] | log2 fold change (entospletinib)
2 | SBF1 isoform 4 (UniProt O95248) | inactive: -0.018 | inactive: -0.041 | inactive: 0.092 | inactive: -0.046 | inactive: 0.047 | inactive: -0.103 | inactive: 0.162 | inactive: 0.12 | inactive: 0.039 | inactive: 0.091 | inactive: 0.013 | active: -0.377 | inactive: -0.046 | inactive: 0.056 | inactive: 0.005
3 | SENP8 (UniProt Q96LD8) | inactive: -0.102 | inactive: 0.365 | inactive: -0.216 | inactive: -0.084 | inactive: -0.124 | inactive: -0.024 | inactive: -0.375 | inactive: -0.007 | inactive: -0.008 | inactive: -0.005 | inactive: 0.141 | inactive: -0.006 | inactive: 0.049 | inactive: 0.019 | inactive: -0.118
